# Structures can show the parent of a compound that is named as a salt. The list shows a part of the results. Hit calls seldom repeat between salt and free forms of one compound.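 Kinases, fused to nanoluciferase, were expressed in K562 cells; luminescence was measured every 4 h from 2 to 18 h as percent of control (DMSO = 100%, positive control = 0%). A time point is decreased if signal falls significantly (2 sigma). Hits were called by the authors by a rule that is not shown; the count of time points alone does not decide it.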
# The chains behind the UniProt entries cited, without tags or fusion partners. Where a name states a change or a piece, a line headed by the entry shows the natural chain unless it says otherwise.
# UniProt Q15208: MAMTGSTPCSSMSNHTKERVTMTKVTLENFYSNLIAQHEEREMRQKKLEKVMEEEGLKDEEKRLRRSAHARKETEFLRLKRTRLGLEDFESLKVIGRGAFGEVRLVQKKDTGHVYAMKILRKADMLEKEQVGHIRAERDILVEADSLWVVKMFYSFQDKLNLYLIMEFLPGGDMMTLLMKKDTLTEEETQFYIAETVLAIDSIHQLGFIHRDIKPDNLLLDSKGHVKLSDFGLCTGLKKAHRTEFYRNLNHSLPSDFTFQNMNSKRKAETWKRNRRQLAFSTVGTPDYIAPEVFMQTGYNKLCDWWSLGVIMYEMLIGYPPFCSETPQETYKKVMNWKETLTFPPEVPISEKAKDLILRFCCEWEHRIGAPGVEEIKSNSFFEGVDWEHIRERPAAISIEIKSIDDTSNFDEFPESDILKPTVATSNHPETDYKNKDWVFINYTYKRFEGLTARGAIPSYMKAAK
# UniProt P42680: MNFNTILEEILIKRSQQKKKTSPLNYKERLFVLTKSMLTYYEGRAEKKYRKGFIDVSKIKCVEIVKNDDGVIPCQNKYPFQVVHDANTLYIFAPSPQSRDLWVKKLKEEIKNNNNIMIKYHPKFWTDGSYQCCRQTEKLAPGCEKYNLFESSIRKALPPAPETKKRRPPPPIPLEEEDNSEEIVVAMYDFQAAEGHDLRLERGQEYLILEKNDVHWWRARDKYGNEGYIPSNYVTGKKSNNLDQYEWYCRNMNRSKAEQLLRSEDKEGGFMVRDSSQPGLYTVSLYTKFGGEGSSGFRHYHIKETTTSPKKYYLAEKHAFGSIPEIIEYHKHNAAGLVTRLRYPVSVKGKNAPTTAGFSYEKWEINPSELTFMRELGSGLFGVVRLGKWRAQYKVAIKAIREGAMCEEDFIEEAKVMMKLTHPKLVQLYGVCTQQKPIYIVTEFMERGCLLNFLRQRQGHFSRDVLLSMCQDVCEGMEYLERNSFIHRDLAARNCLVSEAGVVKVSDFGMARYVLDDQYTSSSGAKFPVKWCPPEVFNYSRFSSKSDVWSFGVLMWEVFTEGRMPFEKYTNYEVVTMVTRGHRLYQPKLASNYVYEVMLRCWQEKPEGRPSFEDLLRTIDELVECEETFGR
# UniProt P29597: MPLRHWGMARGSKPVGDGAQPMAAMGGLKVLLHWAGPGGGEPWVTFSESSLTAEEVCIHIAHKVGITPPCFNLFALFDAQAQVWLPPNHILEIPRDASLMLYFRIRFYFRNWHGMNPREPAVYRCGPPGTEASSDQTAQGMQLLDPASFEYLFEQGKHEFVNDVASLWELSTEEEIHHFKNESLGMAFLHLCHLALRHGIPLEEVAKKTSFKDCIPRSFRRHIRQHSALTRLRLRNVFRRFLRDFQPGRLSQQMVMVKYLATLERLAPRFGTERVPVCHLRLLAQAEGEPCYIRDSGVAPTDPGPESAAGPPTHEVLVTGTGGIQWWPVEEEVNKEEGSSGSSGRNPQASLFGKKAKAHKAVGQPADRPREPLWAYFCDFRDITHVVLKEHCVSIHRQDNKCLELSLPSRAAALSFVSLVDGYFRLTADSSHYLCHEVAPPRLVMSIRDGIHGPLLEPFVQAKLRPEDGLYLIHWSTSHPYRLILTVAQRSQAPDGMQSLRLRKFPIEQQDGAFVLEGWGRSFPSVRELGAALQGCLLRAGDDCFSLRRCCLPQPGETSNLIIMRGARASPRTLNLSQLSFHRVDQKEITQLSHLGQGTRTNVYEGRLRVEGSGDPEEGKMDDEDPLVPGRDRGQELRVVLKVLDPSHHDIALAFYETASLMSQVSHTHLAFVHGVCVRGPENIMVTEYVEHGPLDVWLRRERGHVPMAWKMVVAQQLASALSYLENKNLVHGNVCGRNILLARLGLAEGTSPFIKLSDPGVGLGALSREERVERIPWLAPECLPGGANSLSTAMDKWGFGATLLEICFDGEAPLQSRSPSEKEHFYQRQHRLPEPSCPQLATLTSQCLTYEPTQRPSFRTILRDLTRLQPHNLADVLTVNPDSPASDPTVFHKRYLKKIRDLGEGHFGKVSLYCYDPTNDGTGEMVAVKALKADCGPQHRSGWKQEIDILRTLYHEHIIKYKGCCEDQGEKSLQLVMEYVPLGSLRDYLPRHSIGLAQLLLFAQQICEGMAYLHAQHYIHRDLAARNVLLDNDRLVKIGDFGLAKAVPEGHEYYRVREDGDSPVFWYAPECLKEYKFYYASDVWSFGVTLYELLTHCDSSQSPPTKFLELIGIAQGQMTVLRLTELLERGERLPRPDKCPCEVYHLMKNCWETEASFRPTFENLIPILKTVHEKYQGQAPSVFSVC
# UniProt Q6PHR2: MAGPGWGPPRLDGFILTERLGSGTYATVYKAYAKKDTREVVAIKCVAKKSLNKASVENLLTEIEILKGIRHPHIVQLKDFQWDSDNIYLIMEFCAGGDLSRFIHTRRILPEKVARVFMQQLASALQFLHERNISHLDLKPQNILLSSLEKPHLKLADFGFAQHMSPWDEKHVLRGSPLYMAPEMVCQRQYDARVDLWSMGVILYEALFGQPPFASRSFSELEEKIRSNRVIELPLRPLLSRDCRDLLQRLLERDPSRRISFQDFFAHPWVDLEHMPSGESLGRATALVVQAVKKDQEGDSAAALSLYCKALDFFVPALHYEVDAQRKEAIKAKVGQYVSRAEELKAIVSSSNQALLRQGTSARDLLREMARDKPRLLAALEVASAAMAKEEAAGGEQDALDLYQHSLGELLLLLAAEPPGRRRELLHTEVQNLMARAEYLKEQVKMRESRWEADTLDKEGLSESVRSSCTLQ
# UniProt P07947, whole entry, looked up: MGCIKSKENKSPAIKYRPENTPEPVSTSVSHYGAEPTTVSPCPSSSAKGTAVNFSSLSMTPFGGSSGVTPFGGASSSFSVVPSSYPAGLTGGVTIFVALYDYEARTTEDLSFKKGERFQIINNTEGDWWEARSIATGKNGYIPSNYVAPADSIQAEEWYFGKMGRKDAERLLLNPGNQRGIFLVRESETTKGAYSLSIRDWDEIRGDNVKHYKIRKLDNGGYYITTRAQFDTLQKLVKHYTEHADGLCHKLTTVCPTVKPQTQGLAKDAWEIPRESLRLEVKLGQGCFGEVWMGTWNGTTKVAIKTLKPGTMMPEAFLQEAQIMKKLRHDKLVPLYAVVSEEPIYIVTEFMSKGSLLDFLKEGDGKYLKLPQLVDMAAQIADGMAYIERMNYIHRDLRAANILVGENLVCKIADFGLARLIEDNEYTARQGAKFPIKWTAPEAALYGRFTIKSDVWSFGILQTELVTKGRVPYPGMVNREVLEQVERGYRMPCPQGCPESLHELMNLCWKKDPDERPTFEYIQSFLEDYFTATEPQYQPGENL
# UniProt P43403: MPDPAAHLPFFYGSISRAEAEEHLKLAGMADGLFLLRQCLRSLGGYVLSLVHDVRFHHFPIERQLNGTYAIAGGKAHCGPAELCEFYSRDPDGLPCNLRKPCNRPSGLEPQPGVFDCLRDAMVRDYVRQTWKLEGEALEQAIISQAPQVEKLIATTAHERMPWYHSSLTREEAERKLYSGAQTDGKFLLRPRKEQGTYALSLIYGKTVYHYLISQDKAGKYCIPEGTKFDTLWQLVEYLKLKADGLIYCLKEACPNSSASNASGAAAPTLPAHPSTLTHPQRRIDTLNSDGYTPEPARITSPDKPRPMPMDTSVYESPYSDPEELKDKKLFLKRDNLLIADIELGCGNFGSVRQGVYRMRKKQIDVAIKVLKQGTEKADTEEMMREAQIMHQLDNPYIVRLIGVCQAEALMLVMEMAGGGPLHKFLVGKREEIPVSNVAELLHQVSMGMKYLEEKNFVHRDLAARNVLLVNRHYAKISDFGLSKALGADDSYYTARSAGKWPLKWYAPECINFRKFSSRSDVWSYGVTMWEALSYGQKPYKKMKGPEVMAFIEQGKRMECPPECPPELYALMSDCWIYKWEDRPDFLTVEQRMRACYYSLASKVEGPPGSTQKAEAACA
# UniProt P00519, whole entry: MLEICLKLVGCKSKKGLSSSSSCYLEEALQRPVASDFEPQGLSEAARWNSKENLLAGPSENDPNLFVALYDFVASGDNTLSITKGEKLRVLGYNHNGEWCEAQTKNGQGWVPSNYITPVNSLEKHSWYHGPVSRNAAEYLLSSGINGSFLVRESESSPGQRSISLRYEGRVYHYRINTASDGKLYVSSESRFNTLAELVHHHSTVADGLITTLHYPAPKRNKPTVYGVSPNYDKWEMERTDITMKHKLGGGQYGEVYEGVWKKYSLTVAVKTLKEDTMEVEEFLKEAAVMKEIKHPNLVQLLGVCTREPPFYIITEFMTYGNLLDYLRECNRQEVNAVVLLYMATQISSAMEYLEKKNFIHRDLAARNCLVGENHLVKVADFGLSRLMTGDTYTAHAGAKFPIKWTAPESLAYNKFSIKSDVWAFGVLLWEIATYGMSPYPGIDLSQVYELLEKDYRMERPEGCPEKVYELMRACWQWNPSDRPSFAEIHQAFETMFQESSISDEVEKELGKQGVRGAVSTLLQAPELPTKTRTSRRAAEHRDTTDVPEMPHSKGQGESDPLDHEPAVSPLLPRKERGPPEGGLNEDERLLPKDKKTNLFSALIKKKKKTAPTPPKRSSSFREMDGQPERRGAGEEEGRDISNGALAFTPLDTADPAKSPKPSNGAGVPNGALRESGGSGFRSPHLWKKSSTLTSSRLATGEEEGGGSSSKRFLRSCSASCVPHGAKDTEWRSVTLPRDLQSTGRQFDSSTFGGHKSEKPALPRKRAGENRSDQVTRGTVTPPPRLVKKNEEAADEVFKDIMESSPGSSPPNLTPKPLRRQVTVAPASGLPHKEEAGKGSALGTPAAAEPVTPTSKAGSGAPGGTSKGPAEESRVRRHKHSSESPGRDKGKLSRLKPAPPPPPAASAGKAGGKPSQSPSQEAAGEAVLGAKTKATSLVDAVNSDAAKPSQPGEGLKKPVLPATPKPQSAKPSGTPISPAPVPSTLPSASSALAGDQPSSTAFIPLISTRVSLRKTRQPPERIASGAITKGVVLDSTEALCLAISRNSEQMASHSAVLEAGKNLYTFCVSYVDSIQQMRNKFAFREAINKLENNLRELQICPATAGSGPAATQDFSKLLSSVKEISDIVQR
# UniProt P31749: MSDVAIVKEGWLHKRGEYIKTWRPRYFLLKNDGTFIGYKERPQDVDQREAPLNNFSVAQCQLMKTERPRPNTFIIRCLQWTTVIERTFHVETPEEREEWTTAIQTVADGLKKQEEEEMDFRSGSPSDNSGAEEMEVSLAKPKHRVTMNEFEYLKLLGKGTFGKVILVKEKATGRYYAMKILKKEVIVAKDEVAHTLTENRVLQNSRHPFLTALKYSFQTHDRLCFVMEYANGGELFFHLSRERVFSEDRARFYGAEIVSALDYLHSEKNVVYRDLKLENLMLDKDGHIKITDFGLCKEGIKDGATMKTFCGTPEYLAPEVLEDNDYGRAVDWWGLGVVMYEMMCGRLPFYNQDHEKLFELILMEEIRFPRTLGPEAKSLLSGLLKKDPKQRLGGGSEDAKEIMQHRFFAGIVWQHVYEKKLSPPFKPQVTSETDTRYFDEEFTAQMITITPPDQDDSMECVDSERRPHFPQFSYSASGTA
# Legend:
# Conditions in all cases: K562; 2-18 h
# STK38 = STK38 (UniProt Q15208); assay: kinase-Nluc reporter destabilization hit call (1 = scored as downregulated) (binary); higher = compound decreases kinase abundance
# SYK = SYK (UniProt P43405); assay: as above
# TEC = TEC (UniProt P42680); assay: as above
# TYK2 = TYK2 (UniProt P29597); assay: as above
# ULK3 = ULK3 (UniProt Q6PHR2); assay: as above
# YES1 = YES1 (UniProt P07947); assay: as above
# ZAK = ZAK (UniProt Q9NYL2); assay: as above
# ZAP70 = ZAP70 (UniProt P43403); assay: as above
# ABL1 = ABL1 (UniProt P00519); assay: number of time points (of 5) at which kinase-Nluc abundance scored as decreased, DMSO-normalised (count); higher = more persistent destabilization
# AKT1 = AKT1 (UniProt P31749); assay: as above
SMILES,kinase-Nluc reporter destabilization hit call (STK38),kinase-Nluc reporter destabilization hit call (SYK),kinase-Nluc reporter destabilization hit call (TEC),kinase-Nluc reporter destabilization hit call (TYK2),kinase-Nluc reporter destabilization hit call (ULK3),kinase-Nluc reporter destabilization hit call (YES1),kinase-Nluc reporter destabilization hit call (ZAK),kinase-Nluc reporter destabilization hit call (ZAP70),number of time points (ABL1),number of time points (AKT1)
Nc1n[nH]c2cc(-c3ccc(=O)n(Cc4cccc(Cl)c4)c3)ccc12 (10 µM),inactive: 0,inactive: 0,inactive: 0,inactive: 0,inactive: 0,inactive: 0,inactive: 0,inactive: 0,0,0
Cc1cc(Nc2cc(CN3CCOCC3)c3nc(C)c(Cc4ccc(Cl)cc4F)n3n2)n[nH]1 [Gandotinib] (2.5 µM),inactive: 0,inactive: 0,inactive: 0,inactive: 0,inactive: 0,inactive: 0,inactive: 0,inactive: 0,0,0
O=C(c1ccc(Nc2nccc(-c3cc4ccccc4s3)n2)cc1)N1CCC(N2CCCC2)CC1 (2.5 µM),inactive: 0,inactive: 0,inactive: 0,inactive: 0,inactive: 0,inactive: 0,inactive: 0,inactive: 0,0,0
COC1(C(=O)N[C@@H](C)c2ccc(-n3cc(F)cn3)nc2)CCC(c2nc(C)cc(Nc3cc(C)[nH]n3)n2)CC1 (stereo partly drawn) [trans-Pralsetinib] (2.5 µM),inactive: 0,inactive: 0,inactive: 0,inactive: 0,inactive: 0,inactive: 0,inactive: 0,inactive: 0,0,0
Nc1cccc(S(=O)(=O)N2CCCN(S(=O)(=O)c3ccc4c(c3)OCCO4)CC2)c1 (10 µM),inactive: 0,inactive: 0,inactive: 0,inactive: 0,inactive: 0,inactive: 0,inactive: 0,inactive: 0,0,0
COc1cc(N2CCC(N(C)C)CC2)ccc1Nc1ncc(Cl)c(Nc2ccccc2P(C)(C)=O)n1 (2.5 µM),inactive: 0,inactive: 0,inactive: 0,inactive: 0,inactive: 0,inactive: 0,inactive: 0,inactive: 0,0,0
O=C(CCCCCn1cc(Nc2ncc(Cl)c(Nc3ccc(Cl)cc3)n2)cn1)NO (2.5 µM),inactive: 0,inactive: 0,inactive: 0,inactive: 0,inactive: 0,inactive: 0,inactive: 0,inactive: 0,0,0
Cc1ccc(-c2ncn(-c3ccc(Nc4nccc(-c5cccc(N6CCOCC6)c5)n4)cc3)n2)cn1 (10 µM),inactive: 0,inactive: 0,inactive: 0,inactive: 0,inactive: 0,inactive: 0,inactive: 0,inactive: 0,0,0
Cn1cc(-c2ccc(F)c(C(F)(F)F)c2)nc1C1CCN(c2ncnc3[nH]ncc23)CC1 (10 µM),inactive: 0,inactive: 0,inactive: 0,inactive: 0,inactive: 0,inactive: 0,inactive: 0,inactive: 0,0,0
O=C(CO)N1CCC(c2n[nH]c(-c3ccc(Cl)cc3)c2-c2ccncn2)CC1 (10 µM),inactive: 0,inactive: 0,inactive: 0,inactive: 0,inactive: 0,inactive: 0,inactive: 0,inactive: 0,0,0
"CC(C)C[C@H](NC(=O)[C@H](CCCCN)NC(=O)[C@H](CO)NC(=O)[C@@H](N)CC(C)C)C(N)=O [LSKL, Inhibitor of Thrombospondin (TSP-1) (TFA)] (10 µM)",inactive: 0,inactive: 0,inactive: 0,inactive: 0,inactive: 0,inactive: 0,inactive: 0,inactive: 0,0,0
CC[C@H](Nc1ncnc2[nH]cnc12)c1oc2ccccc2c(=O)c1-c1cccc(F)c1 [Tenalisib] (10 µM),inactive: 0,inactive: 0,inactive: 0,inactive: 0,inactive: 0,inactive: 0,inactive: 0,inactive: 0,0,0
N#Cc1ccc(-c2c(-c3ncn[nH]3)sc(N3CCOCC3)c2C#N)c(F)c1 (10 µM),inactive: 0,inactive: 0,inactive: 0,inactive: 0,inactive: 0,inactive: 0,inactive: 0,inactive: 0,0,0
CC1=C(CC(=O)O)c2cc(F)ccc2/C1=C\c1ccc(C(C)C)cc1 (10 µM),inactive: 0,inactive: 0,inactive: 0,inactive: 0,inactive: 0,inactive: 0,inactive: 0,inactive: 0,0,0
CC(C)c1cnn2c(NCc3ccccc3-n3cccn3)nc(OC3CCCNC3)nc12 (stereo not given) (2.5 µM),inactive: 0,inactive: 0,inactive: 0,inactive: 0,inactive: 0,inactive: 0,inactive: 0,inactive: 0,0,0
Cc1cc2ncc(-c3ccccc3)nc2cc1C (10 µM),inactive: 0,inactive: 0,inactive: 0,inactive: 0,inactive: 0,inactive: 0,inactive: 0,inactive: 0,0,0

# Quoted from the entries so far, 2 compounds:
SMILES,kinase-Nluc reporter destabilization hit call (STK38),kinase-Nluc reporter destabilization hit call (SYK),kinase-Nluc reporter destabilization hit call (TEC),kinase-Nluc reporter destabilization hit call (TYK2),kinase-Nluc reporter destabilization hit call (ULK3),kinase-Nluc reporter destabilization hit call (YES1),kinase-Nluc reporter destabilization hit call (ZAK),kinase-Nluc reporter destabilization hit call (ZAP70),number of time points (ABL1),number of time points (AKT1)
Nc1n[nH]c2cc(-c3ccc(=O)n(Cc4cccc(Cl)c4)c3)ccc12 (10 µM),inactive: 0,inactive: 0,inactive: 0,inactive: 0,inactive: 0,inactive: 0,inactive: 0,inactive: 0,0,0
Cc1cc(Nc2cc(CN3CCOCC3)c3nc(C)c(Cc4ccc(Cl)cc4F)n3n2)n[nH]1 [Gandotinib] (2.5 µM),inactive: 0,inactive: 0,inactive: 0,inactive: 0,inactive: 0,inactive: 0,inactive: 0,inactive: 0,0,0
